{
  "source": "paper PMC11896342",
  "target": "NAD+-dependent deacetylase sirtuin 3 (mouse (endogenous in BMSCs))",
  "test": "co-IP; proteins extracted from BMSCs, incubated overnight at 4°C with anti-Sirt3 antibody and Protein A + G agarose beads, washed three times, eluted; blotted with anti-YME1L1 (1:1000)",
  "note": "No constants are given. Whether binding was seen depends on the method and setting. In cells and extracts the contact can be indirect. Binding calls can cover weak binding; strength is not graded here.",
  "data": [
    {"binder": "YME1L1 (protein, UniProt O88967 1-715) MFSLSSTVQPQVTIPLSHLINAFHSPKNISVSVNTPVSQKQHRDTVPEHEAPSSEPVLNLRDLGLSELKIGQIDKMVENLLPGFYKDKRVSSCWHTSHISAQSFFENKYGHLDMFSTLRSSSLYRQHPKTLRSICSDLQYFPVFIQSRGFKTLKSRTRRLQSTSERLVEAQNIAPSFVKGFLLRDRGTDLESLDKLMKTKNIPEAHQDAFKTGFAEGFLKAQALTQKTNDSLRRTRLILFVLLLFGIYGLLKNPFLSVRFRTTTGLDSAVDPVQMKNVTFEHVKGVEEAKQELQEVVEFLKNPQKFTVLGGKLPKGILLVGPPGTGKTLLARAVAGEADVPFYYASGSEFDEMFVGVGASRIRNLFREAKANAPCVIFIDELDSVGGKRIESPMHPYSRQTINQLLAEMDGFKPNEGVIIIGATNFPEALDNALIRPGRFDMQVTVPRPDVKGRTEILKWYLNKIKFDKSVDPEIIARGTVGFSGAELENLVNQAALKAAVDGKEMVTMKELEFSKDKILMGPERRSVEIDNKNKTITAYHESGHAIIAYYTKDAMPINKATIMPRGPTLGHVSLLPENDRWNETRAQLLAQMDVSMGGRVAEELIFGTDHITTGASSDFDNATKIAKRMVTKFGMSEKLGVMTYSDTGKLSPETQSAIEQEIRILLRESYERAKHILKTHAKEHKNLAEALLTYETLDAKEIQIVLEGKKLEVR", "values": [
      {"measurement": "binding", "value": "binds"}
    ]}
  ]
}
